Assay results from article PMC13061415.

The chains behind the UniProt entries cited, without tags or fusion partners. Where a name states a change or a piece, a line headed by the entry shows the natural chain unless it says otherwise. A line that says so, or that is headed by a name, gives the form on record, which may keep a tag or linker.
UniProt Q6VN19: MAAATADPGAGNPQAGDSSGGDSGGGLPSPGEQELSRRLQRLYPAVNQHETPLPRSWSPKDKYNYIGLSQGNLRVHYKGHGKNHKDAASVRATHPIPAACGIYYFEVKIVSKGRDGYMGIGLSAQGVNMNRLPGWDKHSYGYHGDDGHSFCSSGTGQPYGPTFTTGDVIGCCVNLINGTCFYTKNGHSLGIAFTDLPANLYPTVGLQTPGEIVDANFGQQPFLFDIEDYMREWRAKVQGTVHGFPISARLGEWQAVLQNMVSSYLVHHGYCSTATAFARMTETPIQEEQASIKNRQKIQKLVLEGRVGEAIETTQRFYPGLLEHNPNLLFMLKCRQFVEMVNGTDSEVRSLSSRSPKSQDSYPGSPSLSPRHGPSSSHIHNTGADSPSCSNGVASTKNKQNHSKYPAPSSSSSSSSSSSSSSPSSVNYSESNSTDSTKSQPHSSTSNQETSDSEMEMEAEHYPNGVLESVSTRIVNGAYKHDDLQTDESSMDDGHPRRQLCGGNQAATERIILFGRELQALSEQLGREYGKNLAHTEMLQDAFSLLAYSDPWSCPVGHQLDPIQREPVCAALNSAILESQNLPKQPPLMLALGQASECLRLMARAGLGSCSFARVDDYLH
muskelin CTLH-CRA domain (205–735 Δ248–625) (Q99PV3, form named): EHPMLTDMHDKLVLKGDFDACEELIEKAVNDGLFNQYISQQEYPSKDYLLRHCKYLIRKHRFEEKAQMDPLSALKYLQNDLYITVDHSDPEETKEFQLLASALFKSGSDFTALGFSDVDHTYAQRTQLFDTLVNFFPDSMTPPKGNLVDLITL
UniProt Q9D7M1: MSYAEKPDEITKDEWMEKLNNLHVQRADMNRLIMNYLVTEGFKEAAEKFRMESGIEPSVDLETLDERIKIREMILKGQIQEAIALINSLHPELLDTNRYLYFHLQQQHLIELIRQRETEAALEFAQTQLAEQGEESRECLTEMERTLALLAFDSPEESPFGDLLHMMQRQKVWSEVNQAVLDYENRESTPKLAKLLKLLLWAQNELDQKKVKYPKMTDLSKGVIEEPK

Key:
[1] = molecular target: T1, Wdr26 (102–641) (mouse) (UniProt Q8C6G8); experiment: SEC; analytical SEC, Superose 6 increase 10/300 GL; proteins at 30 μM, 1:1 molar ratio, 30 min on ice; both purified
T1 sequence: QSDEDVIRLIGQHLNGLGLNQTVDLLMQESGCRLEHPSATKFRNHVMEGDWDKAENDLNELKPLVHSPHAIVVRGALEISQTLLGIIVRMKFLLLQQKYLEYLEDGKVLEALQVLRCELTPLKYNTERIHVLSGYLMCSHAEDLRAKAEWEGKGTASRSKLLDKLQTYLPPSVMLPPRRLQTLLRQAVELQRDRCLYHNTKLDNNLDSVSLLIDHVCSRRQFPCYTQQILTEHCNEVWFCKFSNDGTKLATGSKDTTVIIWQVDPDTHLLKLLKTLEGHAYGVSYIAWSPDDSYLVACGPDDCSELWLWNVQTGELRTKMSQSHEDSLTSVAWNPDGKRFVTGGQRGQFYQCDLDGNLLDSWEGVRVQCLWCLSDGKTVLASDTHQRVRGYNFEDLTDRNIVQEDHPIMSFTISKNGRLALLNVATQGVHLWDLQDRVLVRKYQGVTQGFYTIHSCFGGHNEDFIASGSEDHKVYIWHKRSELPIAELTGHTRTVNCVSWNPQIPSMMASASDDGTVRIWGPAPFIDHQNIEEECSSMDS

[2] = molecular target: T1, Wdr26 (102–641) (mouse); experiment: ITC; direct titration of RanBP9/10-Twa1 complexes into muskelin or Wdr26 (e.g. 45 μM into 4 μM for RanBP10-Twa1 and muskelin); 25°C; isotherms too steep to fit; both purified
[3] = molecular target: RanBP10 CTLH-CRA domain F543L, V556F (mouse) (UniProt Q6VN19); experiment: ITC; muskelin CTLH-CRA (160 μM, syringe) titrated into RanBP10 or Twa1 CTLH-CRA variants (16 μM, cell); 25°C; 20 mM tricine pH 8.0, 500 mM NaCl, 1 mM TCEP; one-site model; both purified
[4] = molecular target: RanBP10 CTLH-CRA domain F543L, Y548F (mouse) (UniProt Q6VN19); experiment: as above
[5] = molecular target: RanBP10 CTLH-CRA domain Y548F, V556F (mouse) (UniProt Q6VN19); experiment: as above
[6] = molecular target: T2, Maea CTLH-CRA domain (156-279) (mouse) (UniProt Q4VC33); experiment: native gel or EMSA; native agarose gel electrophoresis (NAGE): CTLH-CRA domains at 200 μM incubated with the partner at least 30 min at room temperature; 0.8% agarose, 25 mM Tris, 200 mM glycine, 4°C; Coomassie; both purified
T2 sequence: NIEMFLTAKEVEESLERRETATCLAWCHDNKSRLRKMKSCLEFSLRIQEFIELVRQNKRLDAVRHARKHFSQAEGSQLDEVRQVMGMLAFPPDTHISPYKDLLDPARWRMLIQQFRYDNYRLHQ

In the case of “RanBP10 (57–648)-Twa1 (1–228) complex (mouse)”, the binding [1] is reported as “binds” and the binding [2] is reported as “binds”.
With “muskelin CTLH-CRA domain (205–735 Δ248–625) (from UniProt Q99PV3) (domain or fragment)” the binding [3] was “binds”, the binding [4] was “binds” and the binding [5] was “binds”.
With “Twa1_45 mutant, CTLH-CRA domain (from UniProt Q9D7M1) (domain or fragment)” the binding [6] was “no binding (tested: 200 μM)”.

No constants are given. Whether binding was seen depends on the method and setting. For part of these data: Binding calls can cover weak binding; strength is not graded here.
